Assay results as given in patent publication EP0534568B1.
These are yes or no findings as the source states them, for the method shown. Some results given as binding are weak or reduced against the parent protein; the word gives no strength.

Amino acid sequences for entries named in this document (tags omitted). A change or cut given only in a name is not applied to a line headed by its entry. Chains listed by the source or under a name are the forms on record and can include a tag or linker.
hGH mutant Arg134→Ala (P01241, form named): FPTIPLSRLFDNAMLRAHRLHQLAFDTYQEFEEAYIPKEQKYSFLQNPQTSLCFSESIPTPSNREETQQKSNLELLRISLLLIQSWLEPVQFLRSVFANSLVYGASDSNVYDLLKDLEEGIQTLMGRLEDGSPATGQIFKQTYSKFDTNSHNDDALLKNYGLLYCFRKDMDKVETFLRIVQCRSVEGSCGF
hGH mutant Arg134→His (P01241, form named): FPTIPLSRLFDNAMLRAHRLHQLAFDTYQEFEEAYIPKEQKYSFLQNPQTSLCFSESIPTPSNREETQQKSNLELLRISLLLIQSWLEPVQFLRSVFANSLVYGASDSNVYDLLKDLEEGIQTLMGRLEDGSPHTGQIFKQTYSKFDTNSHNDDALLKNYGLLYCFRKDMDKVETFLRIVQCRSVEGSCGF
hGH mutant Arg134→Leu (P01241, form named): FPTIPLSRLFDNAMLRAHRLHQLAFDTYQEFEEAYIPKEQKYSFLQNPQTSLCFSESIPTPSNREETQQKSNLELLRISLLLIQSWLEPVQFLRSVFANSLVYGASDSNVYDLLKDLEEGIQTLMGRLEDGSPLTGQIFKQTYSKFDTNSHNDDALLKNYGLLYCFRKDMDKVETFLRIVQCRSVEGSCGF
hGH mutant Arg134→Phe (P01241, form named): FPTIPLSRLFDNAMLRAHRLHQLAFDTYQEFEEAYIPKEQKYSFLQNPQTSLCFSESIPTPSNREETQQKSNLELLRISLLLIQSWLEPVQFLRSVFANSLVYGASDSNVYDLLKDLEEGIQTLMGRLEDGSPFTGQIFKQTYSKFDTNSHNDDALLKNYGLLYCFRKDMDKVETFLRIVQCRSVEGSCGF
hGH mutant Arg134→Pro (P01241, form named): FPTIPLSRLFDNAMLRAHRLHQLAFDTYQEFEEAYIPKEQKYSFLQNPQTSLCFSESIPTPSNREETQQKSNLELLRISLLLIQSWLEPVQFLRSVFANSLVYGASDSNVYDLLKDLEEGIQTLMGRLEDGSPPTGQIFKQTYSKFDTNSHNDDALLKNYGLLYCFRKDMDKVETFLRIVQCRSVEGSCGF
hGH mutant Arg134→Thr (P01241, form named): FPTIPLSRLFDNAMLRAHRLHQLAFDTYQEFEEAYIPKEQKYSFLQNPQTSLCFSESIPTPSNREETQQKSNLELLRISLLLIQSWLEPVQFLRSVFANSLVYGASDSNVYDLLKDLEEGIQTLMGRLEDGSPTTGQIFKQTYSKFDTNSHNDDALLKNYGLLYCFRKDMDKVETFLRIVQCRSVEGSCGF

What follows are substances tested against T1, growth hormone receptor in microsomal liver membranes of a pregnant rabbit (rabbit) (UniProt P19941) (assay: in vitro receptor assay (Tsushima and Friesen method)).
T1 sequence (looked up): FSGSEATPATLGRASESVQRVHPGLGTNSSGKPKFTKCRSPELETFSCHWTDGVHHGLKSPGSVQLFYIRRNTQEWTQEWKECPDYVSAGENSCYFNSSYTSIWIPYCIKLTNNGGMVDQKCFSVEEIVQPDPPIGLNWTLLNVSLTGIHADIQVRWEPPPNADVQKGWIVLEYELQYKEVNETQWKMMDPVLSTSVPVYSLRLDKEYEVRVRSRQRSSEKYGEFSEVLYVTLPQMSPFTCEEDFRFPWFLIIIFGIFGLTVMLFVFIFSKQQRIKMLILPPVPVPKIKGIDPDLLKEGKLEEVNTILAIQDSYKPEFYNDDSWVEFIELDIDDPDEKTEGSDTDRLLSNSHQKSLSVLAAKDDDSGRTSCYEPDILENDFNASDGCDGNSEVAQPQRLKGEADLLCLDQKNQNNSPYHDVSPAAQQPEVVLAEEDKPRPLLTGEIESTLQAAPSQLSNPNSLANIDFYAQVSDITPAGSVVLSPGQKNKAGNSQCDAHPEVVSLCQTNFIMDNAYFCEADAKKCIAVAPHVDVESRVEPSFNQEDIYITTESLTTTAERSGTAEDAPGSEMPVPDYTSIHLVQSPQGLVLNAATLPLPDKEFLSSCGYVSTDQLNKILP

**Q.** For “hGH mutant Arg134→Ala (from UniProt P01241 27-217) (ligand)”, which binding is on record?
**A.** binds

**Q.** With “hGH mutant Arg134→His (from UniProt P01241 27-217) (ligand)” as the substance, how does the binding read?
**A.** binds

**Q.** For “hGH mutant Arg134→Leu (from UniProt P01241 27-217) (ligand)”, which binding is on record?
**A.** binds

**Q.** Which binding does the source give for “hGH mutant Arg134→Phe (from UniProt P01241 27-217) (ligand)” here?
**A.** binds

**Q.** “hGH mutant Arg134→Pro (from UniProt P01241 27-217) (ligand)” was tested. Which binding did it give?
**A.** binds

**Q.** For “hGH mutant Arg134→Thr (from UniProt P01241 27-217) (ligand)”, which binding is on record?
**A.** binds
